# Data from patent US11865157B2, “Compositions and methods of targeting cancer stem cells” (University of Houston System, priority 2016, dated 2024).
# Some of these results come from one statement about several compounds together. Numbered stars: 1 amine (or outer) side, 2 acyl side, 3 side chain; on linkers, the order of the positions; unused ones are H or OH. Square brackets hold non-standard residues; d marks the D form. Peptide text beside a SMILES is read from it. * marks the point of attachment. ξ: configuration not given here. X3 = CC(C)OCCCN(CC(=O)*)C(=O)CN(Cc1ccco1)C(=O)CCC(=O)c1cccs1; Gly(N-piperonyl) = O=C(O)CNCc1ccc2c(c1)OCO2; N(4-MeOBn)Gly = COc1ccc(CNCC(=O)O)cc1; N((CH2)3OiPr)Gly = CC(C)OCCCNCC(=O)O; X1 = CC(c1ccccc1)N(CC(=O)[*:2])[*:1]; NFurfurylGly = O=C(O)CNCc1ccco1; X2 = O=C(CCC(=O)*)c1cccs1; NAllylGly = C=CCNCC(=O)O; Nlys = NCCCCNCC(=O)O; ξK = NCCCCC(N)C(=O)O; ξV = CC(C)C(N)C(=O)O; ξM = CSCCC(N)C(=O)O; Nme = COCCNCC(=O)O
# Test system: H358 cells
# Experiment: RT-qPCR of CSC markers in magnetic-bead bound vs unbound cell fractions
# Type: cell-based
# Settings: peptoid-coated magnetic beads
row,Compound,ALDH1A3 expression in peptoid-bound cells compared to baseline cell line
1,COCCN(CC(=O)N(CCCCN)CC(=O)NC(C(=O)N[C@H](CCCCN)C(=O)NC(CCSC)C(N)=O)C(C)C)C(=O)CN(CCCCN)C(=O)CN(CCCCN)C(=O)CNCc1ccc(OC)cc1 (stereo partly drawn) [PCS1] (H-[N(4-MeOBn)Gly][Nlys][Nlys][Nme][Nlys][ξV][dK][ξM]-NH2),at least 2 fold
2,COCCNCC(=O)N(CCCCN)CC(=O)N(CC(=O)N(CC(=O)N(CCCCN)CC(=O)NC(CCCCN)C(=O)N[C@H](CCCCN)C(=O)NC(CCSC)C(N)=O)C(C)c1ccccc1)Cc1ccc2c(c1)OCO2 (stereo partly drawn) [PCS2] (H-[Nme][Nlys][Gly(N-piperonyl)][X1][Nlys][ξK][dK][ξM]-NH2),at least 2 fold
3,C=CCN(CC(=O)N(CC(=O)N(CCCCN)CC(=O)N(CCCCN)CC(=O)N(CCOC)CC(=O)NC(CCSC)C(N)=O)Cc1ccco1)C(=O)C(CCCCNC(=O)CN(CCCOC(C)C)C(=O)CN(Cc1ccco1)C(=O)CCC(=O)c1cccs1)NC(=O)CN(CCCOC(C)C)C(=O)CN(Cc1ccco1)C(=O)CCC(=O)c1cccs1 (stereo not drawn) [PCS3] (X2-[NFurfurylGly][N((CH2)3OiPr)Gly]K(X3)[NAllylGly][NFurfurylGly][Nlys][Nlys][Nme]M-NH2; configuration not given here),at least 2 fold
